Measurements from PubChem BioAssay AID597 (National Center for Advancing Translational Sciences (NCATS), 2007).
Among all 68,000 compounds or so, about 60 (0.09%) were called active. The shares of active, inactive and inconclusive entries below differ from those in the screen. The call rests on the fitted dose curve; in most records, active means well fitted curve in the direction sought with a large enough effect; inconclusive means small, poorly fitted or top-dose-only effect; inactive means flat fitted curve, though single readings scatter. A potency beside an inconclusive call is a rough fit, not a confirmed value.

Experiment: qHTS Assay for Epigenetic Modulators; on GFP derepression (activation): % of control where 0% means no effect
Conditions: mouse C127i GFP locus derepression, cytometry, 30 h; series mostly up to 46.1 µM; GFP derepression (activation): at the top concentration
Method in brief: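 Read-out is the number of GFP-positive cells, scored as fluorescent objects 20 to 120 um wide, reflecting derepression of a silenced CMV-GFP reporter in murine C127i cells after 30 h compound exposure at 37 C.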

Compound	Potency	GFP derepression (activation)
Cc1cc(C)nc(-n2nc(C)c(Sc3ccc(F)cc3)c2N)n1	inconclusive: 31.6 µM [single point]	–
C[N+]1(C)CC[C@@H](OC(=O)[C@@](O)(c2ccccc2)C2CCCC2)C1	–	inactive: -1.2% [at 20.6 µM]
COc1ccc(-c2nc3cnc(Nc4ccccc4)nc3n(CCC#N)c2=O)cc1	inconclusive: 1.26 µM [single point]	–
CCCCn1c(=NC(=O)c2cccnc2)c(C(=O)OCC)cc2c(=O)n3ccccc3nc21	inconclusive: 31.6 µM [single point]	–
C[C@@H](NC(=O)/C(C#N)=C/c1ccc(O)c(O)c1)c1ccccc1	–	inactive: 1.1%
Cc1cc(C)n(-c2nc(NC(C)(C)C)nc(NC(C)(C)C)n2)n1	active: 12.6 µM	–
COCCn1c(=O)c(CCc2ccccc2)nc2cncnc21	inconclusive: 5.01 µM [single point]	–
CCN(CC)COC(=S)S	inconclusive: 5.01 µM [single point]	–
CC1CCCc2sc3nc(NCc4ccco4)n4ncnc4c3c21 (configuration not stated)	–	inactive: 2.1%
Nc1ccc(-c2nc3c(Cl)c(N)ccc3[nH]2)cc1	–	inactive: 1.2%
Cc1ccc2cc(C#N)c(NCc3ccco3)nc2c1	–	inactive: 1.2%
COc1ccc2c(C)c(C(=O)NCC(C)O)oc2c1OC (configuration not stated)	inconclusive: 25.1 µM [single point]	–
O=C1OC(NC(=O)c2ccccc2)C(n2cc(CO)nn2)=C1Cl (configuration not stated)	inconclusive: 31.6 µM [single point]	–
Cc1cccnc1NCc1ccc(O)c2ncccc12	active: 10 µM	–
Cc1cccc2cc(C#N)c(SCC(=O)N3CC(=O)Nc4ccccc43)nc12	active: 15.8 µM	–
Cc1ccc(NC(=O)CSCC(N)=O)cc1C	active: 15.8 µM	–
CCn1c(SCC(=O)c2ccccc2)nnc1-c1ccoc1C	inconclusive: 31.6 µM [single point]	–
COc1cc(/C=C/C(=O)CC(=O)/C=C/c2ccc(O)c(OC)c2)ccc1O	–	inactive: 6% [at 20.6 µM]
O=C(c1ccccc1)C(CCC(CN1CCOCC1)C(=O)c1ccccc1)CN1CCOCC1 (configuration not stated)	inconclusive: 5.01 µM [single point]	–
O=C(NC1=NCCS1)Nc1ccccc1	–	inactive: 2.2%
COc1ccc2c(c1)CCC1[C@@H]2CCC2(C)[C@@H](NCCCCCCN3C(=O)C=CC3=O)CC[C@@H]12 (some centres not stated)	–	inactive: 0%
CCN(CC)c1ccc2c(c1)oc(=O)c1c(Cl)cc(=O)oc12	inconclusive: 3.16 µM [partial curve]	–
CC[C@@H](C)[C@H]1O[C@]2(CC[C@@H]1C)C[C@@H]1C[C@H](C/C=C(/C)[C@H](O[C@@H]3C[C@H](OC)[C@H](O[C@@H]4C[C@H](OC)[C@@H](O)[C@H](C)O4)[C@H](C)O3)[C@@H](C)/C=C\C=C3CO[C@@H]4[C@H](O)C(C)=C[C@@H](C(=O)O1)[C@]34O)O2 (tested in a mixture with another compound)	–	inactive: 1%
CC(C)COC(=O)c1cc(-c2ccc(/C=N/n3cnnc3)o2)ccc1Cl	–	inactive: 2.6%
COCCn1c(=N)c(C(=O)NCCc2ccccc2)cc2c(=O)n3cccc(C)c3nc21	–	inactive: -3.1%
COc1ccc(-c2nnc(Nc3nc4c(OC)cccc4s3)o2)c(OC)c1	inconclusive: 31.6 µM [single point]	–

A different layout for some results above:
Compound | Potency | GFP derepression (activation)
C[C@@H](NC(=O)/C(C#N)=C/c1ccc(O)c(O)c1)c1ccccc1 | – | inactive: 1.1%
Cc1cc(C)n(-c2nc(NC(C)(C)C)nc(NC(C)(C)C)n2)n1 | active: 12.6 µM | –

Continuation.

Compound	Potency	GFP derepression (activation)
N#C/C(=C/c1ccc(N2CCCCCC2)o1)c1ccc(F)cc1	active: 3.16 µM	–
N#Cc1ccc(NC(=O)c2cc3cc4c5c(c3oc2=N)CCCN5CCC4)cc1	active: 10 µM	–
c1c2c(cc3sc(N4CCOCC4)nc13)OCCO2	–	inactive: 4.3%
CC1(C)NC(=O)N(CCCOc2ccc(Br)cc2Cl)C1=O	inconclusive: 3.16 µM [single point]	–
Cc1cc(C)n(-c2nc(NC(C)C)nc(NC(C)C)n2)n1	active: 6.31 µM	–
CCN1C(=O)c2cccc3c(NC(=O)c4ccc5c(c4)OCCO5)ccc1c23	active: 12.6 µM	–
COc1cccc(Cn2c(=O)cnc3cncnc32)c1	inconclusive: 6.31 µM [single point]	–
Nc1nc(SCC(=O)N2CCCc3ccccc32)[nH]c(=O)c1-c1ccccc1	–	inactive: 0%
Oc1c(CN2CCOCC2)cc(COCc2ccccc2)c2cccnc12	inconclusive: 3.16 µM [partial curve]	–
O=C(Oc1cccc2cccnc12)c1ccc(Br)o1	active: 5.01 µM	–
COc1ccc(N2CCN(C(=O)CSc3nnc(CNc4ccccc4)o3)CC2)cc1	inconclusive: 3.98 µM [single point]	–
COC(=O)Oc1c(Br)c(=O)oc2ccccc12	inconclusive: 25.1 µM [single point]	–
Cc1c(=O)n(OCc2ccccc2F)c2ccccc2[n+]1[O-]	active: 12.6 µM	–
O=C(NC1=NCCS1)c1cccc(NC(=O)c2ccco2)c1	–	inactive: 2%
CC(C)c1nnc(NC(=O)CCC(=O)NCc2ccc3c(c2)OCO3)s1	inconclusive: 25.1 µM [single point]	–
CCNc1ncc2nc(-c3cccs3)c(=O)n(-c3ccccc3)c2n1	–	inactive: 8.1% [at 9.22 µM]
COc1ccc(C(NC(C)=O)c2ccc3cccnc3c2O)c(OC)c1 (configuration not stated)	active: 12.6 µM	–
O=C(CC1Sc2ncnn2C1=O)Nc1ccc(Br)cc1 (configuration not stated)	inconclusive: 31.6 µM [single point]	–
Cc1cc(-c2ccco2)c(C#N)c2nc3ccccc3n12	inconclusive: 25.1 µM [single point]	–
O=C1CC(SCc2nc3ccccc3[nH]2)C(=O)N1c1cccc(F)c1 (configuration not stated)	inconclusive: 25.1 µM [single point]	–
COCc1cc(CN2CCCC2)c(O)c2ncccc12	inconclusive: 20 µM [single point]	–
O=C(NCc1ccccc1)c1ccc2c(c1)OCCO2	inconclusive: 5.01 µM [single point]	–
CCCCn1c(-c2ccc(Cl)cc2)nc2c(=O)n(C)c(=O)[nH]c21	inconclusive: 12.6 µM [single point]	–
CN(C)c1ncc2ncc(=O)n(Cc3cccs3)c2n1	–	inactive: 2.7% [at 9.22 µM]
COc1nc2c(C)cccc2cc1-c1noc(-c2ccco2)n1	inconclusive: 15.8 µM [single point]	–
COc1ccccc1OCC(=O)Nc1ccccn1	inconclusive: 3.98 µM [single point]	–
